# Source: PubChem BioAssay AID1347076 (National Center for Advancing Translational Sciences (NCATS), 2019)
# Among all 400,000 compounds or so, about 13,000 (3.2%) were called active. Inconclusive results, whose numbers are uncertain, are shown with a selection of clear calls. Calls come from the whole dose curve; as a rule, active = well fitted cell-killing curve with a large enough effect; inconclusive = small, poorly fitted or top-dose-only effect, or effect the other way; inactive = flat fitted curve, though single readings scatter. Where the call is inconclusive, the potency comes from a doubtful curve fit.
# Assay: qHTS assay for MDR1-selective chemotherapeutics: Primary screen using the drug-selected MDR subline cells KB-V1; note: nearly all actives have a fitted effect of over 60% in size
# Conditions: KB-V1 MDR cells viability, CellTiter-Glo, 72 h; series mostly up to 46.1 µM
# Procedure, shortened: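 Drug-selected KB-V1 cells, grown in DMEM lacking phenol red with 10% FBS, receive compound titrations; after three days at 37 degrees C, surviving cell ATP is quantified by CellTiter-Glo luminescence and responses normalized and curve-fitted.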
# Potency is the fitted concentration of half-maximal effect.
row,Structure (SMILES),Potency
1,O=C(NN1C(=O)c2ccccc2NC1c1cccnc1)c1ccc([N+](=O)[O-])cc1 (stereo not given),"inconclusive: 32.6 µM [rising, single point]"
2,Cc1ccnc(NC(=O)COc2ccc(Cl)cc2)n1,"inconclusive: 0.13 µM [rising, full curve, poor fit]"
3,CC(C)Cn1c(N)c(C(=O)COC(=O)c2cc(S(=O)(=O)N3CCOCC3)ccc2Br)c(=O)n(C)c1=O,"inconclusive: 18.4 µM [cytotoxic, single point]"
4,CCN(CC)c1ccc(/C=N/N(c2ccccc2)c2ccccc2)c(O)c1,active: 16.4 µM
5,CN(Cc1cccs1)C(=O)c1ccc(Cl)c(S(=O)(=O)N2CCCCCC2)c1,"inconclusive: 29.1 µM [cytotoxic, single point]"
6,CN(C)c1ccc(Cn2ccc3ccccc32)cc1,inactive
7,CC(C)Nc1nnc(SCc2cc(=O)n3ccsc3n2)s1,"inconclusive: 18.4 µM [rising, single point]"
8,CC1(C)Cc2cccc(OCC(=O)NCc3cccs3)c2O1,"inconclusive: 14.6 µM [cytotoxic, partial curve]"
9,Cc1ccc(O)c(CCc2ccc(O)cc2)n1,inactive
10,CCc1ccc(NC(=O)CSc2n[nH]c(=O)n2C2CC2)cc1,inactive
11,O=C(O)CC1C(=O)NCCN1CCCc1ccccc1 (stereo not given),"inconclusive: 20.6 µM [rising, single point]"
12,CCOc1ccc(-c2nnn(CC(=O)NCc3ccco3)n2)cc1,"inconclusive: 16.4 µM [cytotoxic, single point]"
13,COc1ccc(S(=O)CC(=O)Nc2ccc(Cl)cc2Cl)cc1 (stereo not given),"inconclusive: 20.6 µM [cytotoxic, single point]"
14,c1ccc(-c2csc(-n3cnnn3)n2)cc1,inactive
15,CN1OC[C@@H]2CN(S(=O)(=O)c3cccc4ccccc34)[C@H](c3ccc(-c4ccccc4)cc3)C[C@@H]21,inactive
16,Cc1c(C(=O)c2ccc(Cl)cc2Cl)cnc2cc3c(cc12)OCO3,"inconclusive: 29.1 µM [cytotoxic, single point]"
17,CC(=O)c1ccc(NC(=O)C2CCN(S(=O)(=O)c3ccc4[nH]c5c(c4c3)CCCCC5)CC2)cc1,"inconclusive: 18.4 µM [rising, partial curve, poor fit]"
18,CC(=O)c1sc(-c2ccc(Cl)cc2)nc1C,"inconclusive: 2.06 µM [rising, partial curve]"
19,COc1ccc2oc(C(=O)c3ccccc3)c(N)c2c1,inactive
20,Cc1cc(C(=O)N/N=C/c2ccc3c(c2)OCO3)c(C)o1,"inconclusive: 29.1 µM [cytotoxic, single point]"
21,COc1ccccc1NC(=O)COc1coc(CN2CCN(c3ccccc3)CC2)cc1=O,"inconclusive: 23.1 µM [cytotoxic, single point]"
22,Cc1ccc2c(c1)C1(C)C(C(C)(C)N2C=O)C1(Cl)Cl (stereo not given),"inconclusive: 18.4 µM [cytotoxic, single point]"
23,COc1cccc(N2CCN(Cc3nc(N)nc(Nc4ccccc4)n3)CC2)c1,inactive

# As a short view, 2 of the compounds above.
row,Structure (SMILES),Potency
1,O=C(NN1C(=O)c2ccccc2NC1c1cccnc1)c1ccc([N+](=O)[O-])cc1 (stereo not given),"inconclusive: 32.6 µM [rising, single point]"
2,Cc1ccnc(NC(=O)COc2ccc(Cl)cc2)n1,"inconclusive: 0.13 µM [rising, full curve, poor fit]"

# Next compounds:

row,Structure (SMILES),Potency
1,COc1ccc(-n2c(-c3cccc(F)c3)nc3c(cnn3-c3ccc(C)cc3)c2=O)cc1,"inconclusive: 29.1 µM [cytotoxic, single point]"
2,O=C(N/N=C/c1cccc([N+](=O)[O-])c1)c1ccccc1-n1cccc1,"inconclusive: 18.4 µM [cytotoxic, single point]"
3,Cc1ccc(Cn2nc3n(c2=O)-c2cc(Cl)ccc2OC3)cc1,inactive
4,CCOC(=O)c1cnc2ccc(OC)cc2c1NCc1ccccc1,active: 3.66 µM
5,O=C(CN1CCC(NC(=O)c2cccc(F)c2)CC1)NCc1ccccc1F,active: 18.4 µM
6,Cc1ccc(S(=O)(=O)N2[C@H](c3ccccc3)CC(=O)[C@@H]3CN(S(=O)(=O)c4ccccc4)[C@H](c4ccccc4)C[C@@H]32)cc1,inactive
7,Cc1cc2oc(C(=O)N(Cc3ccco3)C3CCS(=O)(=O)C3)cc(=O)c2cc1Cl (stereo not given),"inconclusive: 9.2 µM [cytotoxic, partial curve]"
8,Cc1ccc(CNC(=O)C2CN(S(C)(=O)=O)c3cc(Cl)ccc3O2)cc1 (stereo not given),"inconclusive: 20.6 µM [cytotoxic, partial curve, poor fit]"
9,COc1cccc(N2CCN(C(=O)c3ccc(CS(=O)Cc4ccc(Cl)cc4)o3)CC2)c1 (stereo not given),active: 16.4 µM
10,CC1=C(C(=O)OC2CCCC2)C(c2c(F)cccc2Cl)CC(=O)N1 (stereo not given),"inconclusive: 23.1 µM [cytotoxic, partial curve, poor fit]"
11,O=C(N/N=C/c1ccc2c(c1)OCO2)c1ccc2ccccc2n1,inactive
12,Cc1nnc(NC(=O)Cc2cccs2)s1,"inconclusive: 0.651 µM [rising, full curve, poor fit]"
13,Cc1ccc(-n2nnnc2SCC(=O)Nc2ccccc2N2CCCCC2)cc1C,"inconclusive: 23.1 µM [cytotoxic, single point]"
14,COC(=O)c1cccc2c1-c1ccccc1/C2=N/O,"inconclusive: 16.4 µM [cytotoxic, single point]"
15,COc1cccc(/C=c2\s/c(=C/C(=O)c3ccc(C)cc3)[nH]c2=O)c1OC,"inconclusive: 25.9 µM [cytotoxic, single point]"
16,COc1ccc(/C=C2\SC(=S)N(CCC(=O)Nc3ccc(C(=O)O)cc3)C2=O)cc1,"inconclusive: 18.4 µM [rising, single point]"
17,Cc1ccc(OCC(=O)N/N=C\c2c(C)[nH]n(-c3ccccc3)c2=O)c([N+](=O)[O-])c1,"inconclusive: 5.8 µM [cytotoxic, partial curve]"
18,CN(C)C(=O)c1cn(-c2ccccc2)nc1-c1cccc([N+](=O)[O-])c1,inactive
19,CCC/C(=N\NC(=O)CNC(=O)/C=C/c1ccco1)c1ccccc1,"inconclusive: 20.6 µM [cytotoxic, single point]"
20,COC(=O)C1=CN(Cc2ccc(OC)c(OC)c2)C=C(C(=O)OC)C1c1ccc(F)cc1,inactive
21,Cc1cccc(N(C)C(=O)Cn2c(=O)oc3cc(S(=O)(=O)N4CCCCC4)ccc32)c1,inactive
22,O=C(c1ccccc1)N1CCN(CC(O)COCC2CC=CCC2)CC1 (stereo not given),active: 9.2 µM
